The text below walks through data of patent US20020052365A1, “Selective anxiolytic therapeutic agents” (priority 2000, published 2002).

The data set has as its system wild type, α2(H101R) and α3(H126R) mice. The settings on record: wild type mice, fixed 2 rpm, diazepam 3, 10, 30 mg/kg p.o. The source says: Female wild-type and mutant mice were raised in the test rooms and behaviorally tested during the dark period of the 1 2-hr light/dark cycle.

For the molecule `CN1C(=O)CN=C(c2ccccc2)c2cc(Cl)ccc21` [diazepam], the “latency to fall off the rotating rod (motor impairment)” value is “Dose-dependent decrease in the latency to fall off the rotating rod”.
